Record: PubChem BioAssay AID1259298 (Sanger Institute, 2017)
Purpose: 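Kinome knock-downs lethal on their own or synergising with anchor drugs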 (primary screen). Cell system: HT55 human colorectal cancer cell line. Reagent: siRNA pool against human genes. Challenge: anchor drug BYL719 1 µM, cetuximab 5 µg/ml or trametinib 10 nM, or DMSO vehicle alone. Measured: 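Mean viability over replicates versus non-targeting pool, a robust z-score without drug, and per-drug synergy scores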. Scale: robust z-score, knock-down alone: higher = more cells remaining; low means essential gene; viability vs control pool, no drug: higher = more viable cells; synergy score with BYL719 and synergy score with cetuximab and synergy score with trametinib: higher = stronger synthetic lethality with the drug. Call rule: 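Essential when the robust z-score for knock-down alone with DMSO is below -3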. Meaning of the calls: active = essential (knock-down alone); inactive = no change alone.
Here is one part, drawn at random, of 794 reagents. Over the whole deposit, 20 (2.5%) got an active call. 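Calls rest only on the knock-down-alone score; drug synergy scores played no part in them.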 Entries without a mark were called inactive. Reagents against one gene are numbered here. Viability is capped at 1. Not stated in the record: the amount of reagent, the time to read-out.

The first 4 entries as a preview:
| gene symbol | reagent | robust z-score, knock-down alone | viability vs control pool, no drug (fraction) | synergy score with BYL719 | synergy score with cetuximab | synergy score with trametinib |
| --- | --- | --- | --- | --- | --- | --- |
| FBXW7 (F-box and WD repeat domain containing 7) | 1 | 0.58 | 1 | -0.272 | -0.111 | -0.0409 |
| TTBK1 (tau tubulin kinase 1) | 1 | -0.424 | 0.921 | -0.106 | -0.0773 | 0.0531 |
| PIK3C3 (phosphatidylinositol 3-kinase catalytic subunit type 3) | 1 | 0.58 | 1 | -0.18 | 0.0191 | -0.046 |
| CREBBP (CREB binding lysine acetyltransferase) | 1 | 0.289 | 0.977 | -0.149 | 0.00761 | 0.111 |

Main list, repeating the preview:
| gene symbol | reagent | robust z-score, knock-down alone | viability vs control pool, no drug (fraction) | synergy score with BYL719 | synergy score with cetuximab | synergy score with trametinib |
| --- | --- | --- | --- | --- | --- | --- |
| FBXW7 (F-box and WD repeat domain containing 7) | 1 | 0.58 | 1 | -0.272 | -0.111 | -0.0409 |
| TTBK1 (tau tubulin kinase 1) | 1 | -0.424 | 0.921 | -0.106 | -0.0773 | 0.0531 |
| PIK3C3 (phosphatidylinositol 3-kinase catalytic subunit type 3) | 1 | 0.58 | 1 | -0.18 | 0.0191 | -0.046 |
| CREBBP (CREB binding lysine acetyltransferase) | 1 | 0.289 | 0.977 | -0.149 | 0.00761 | 0.111 |
| PKDCC (protein kinase domain containing, cytoplasmic) | 1 | 0.58 | 1 | -0.196 | -0.0197 | 0.0689 |
| ILK (integrin linked kinase) | 1 | 0.58 | 1 | -0.272 | -0.0426 | -0.102 |
| ILK (integrin linked kinase) | 2 | 0.0615 | 0.959 | -0.0929 | -0.122 | 0.0707 |
| AMHR2 (anti-Mullerian hormone receptor type 2) | 1 | -1.29 | 0.854 | -0.291 | -0.239 | -0.0214 |
| AURKC (aurora kinase C) | 1 | 0.58 | 1 | -0.139 | -0.139 | -0.034 |
| MVK (mevalonate kinase) | 1 | 0.58 | 1 | -0.129 | -0.191 | 0.0364 |
| PFKFB2 (6-phosphofructo-2-kinase/fructose-2,6-biphosphatase 2) | 1 | 0.386 | 0.985 | -0.203 | -0.223 | -0.0138 |
| CAMK1 (calcium/calmodulin dependent protein kinase I) | 1 | 0.58 | 1 | -0.0258 | -0.0581 | 0.0146 |
| ULK1 (unc-51 like autophagy activating kinase 1) | 1 | 0.58 | 1 | -0.103 | -0.211 | 0.0183 |
| MAPK9 (mitogen-activated protein kinase 9) | 1 | 0.58 | 1 | -0.272 | -0.211 | -0.0974 |
| MAP4K2 (mitogen-activated protein kinase kinase kinase kinase 2) | 1 | 0.58 | 1 | -0.033 | 0.0505 | -0.0281 |
| PANK4 (pantothenate kinase 4 (inactive)) | 1 | -0.583 | 0.909 | -0.00445 | -0.00361 | 0.0804 |
| TPD52L3 (TPD52 like 3) | 1 | 0.58 | 1 | -0.107 | -0.194 | -0.118 |
| VRK1 (VRK serine/threonine kinase 1) | 1 | 0.58 | 1 | -0.262 | -0.205 | -0.174 |
| PRPS1 (phosphoribosyl pyrophosphate synthetase 1) | 1 | -0.554 | 0.911 | -0.15 | -0.261 | -0.0544 |
| MOK (MOK protein kinase) | 1 | 0.156 | 0.967 | -0.167 | -0.238 | 0.0253 |
| PRKAG1 (protein kinase AMP-activated non-catalytic subunit gamma 1) | 1 | 0.58 | 1 | -0.272 | -0.211 | -0.0397 |
| PDK2 (pyruvate dehydrogenase kinase 2) | 1 | 0.58 | 1 | -0.0609 | -0.0627 | -0.0755 |
| GATA3 (GATA binding protein 3) | 1 | 0.25 | 0.974 | -0.0251 | 0.0311 | -0.00192 |
| AXIN2 (axin 2) | 1 | 0.58 | 1 | -0.184 | -0.155 | 0.00363 |
| DIS3 (DIS3 exosome endoribonuclease and 3'-5' exoribonuclease) | 1 | 0.58 | 1 | -0.272 | -0.0414 | -0.0512 |
| EPHB1 (EPH receptor B1) | 1 | 0.445 | 0.99 | -0.28 | -0.0255 | -0.0297 |
| SGK2 (serum/glucocorticoid regulated kinase 2) | 1 | 0.164 | 0.967 | 0.00568 | -0.00853 | 0.0539 |
| MAPK8 (mitogen-activated protein kinase 8) | 1 | -0.343 | 0.928 | -0.137 | -0.268 | -0.0688 |
| MYH10 (myosin heavy chain 10) | 1 | 0.58 | 1 | -0.195 | -0.0894 | -0.0532 |
| MAPK3 (mitogen-activated protein kinase 3) | 1 | 0.0439 | 0.958 | -0.186 | -0.244 | 0.0739 |
| DCLK3 (doublecortin like kinase 3) | 1 | 0.58 | 1 | -0.096 | -0.148 | -0.0785 |
| CDKL1 (cyclin dependent kinase like 1) | 1 | 0.58 | 1 | -0.16 | -0.152 | 0.0596 |
| ITK (IL2 inducible T cell kinase) | 1 | 0.58 | 1 | -0.272 | -0.131 | -0.117 |
| TSSK4 (testis specific serine kinase 4) | 1 | -0.1 | 0.947 | -0.223 | -0.219 | -0.14 |
